Experimental findings from PMC3928829 are described below.

These are yes or no findings as the source states them, for the method shown. Binding seen in cells or lysates may run through a third protein. A result given as binding can be weak or reduced; the word gives no strength. Sequences can lack the tags named with a protein.

The test addresses T1, 3xFLAG-Ref(2)P (Drosophila) (UniProt P14199).
T1 sequence: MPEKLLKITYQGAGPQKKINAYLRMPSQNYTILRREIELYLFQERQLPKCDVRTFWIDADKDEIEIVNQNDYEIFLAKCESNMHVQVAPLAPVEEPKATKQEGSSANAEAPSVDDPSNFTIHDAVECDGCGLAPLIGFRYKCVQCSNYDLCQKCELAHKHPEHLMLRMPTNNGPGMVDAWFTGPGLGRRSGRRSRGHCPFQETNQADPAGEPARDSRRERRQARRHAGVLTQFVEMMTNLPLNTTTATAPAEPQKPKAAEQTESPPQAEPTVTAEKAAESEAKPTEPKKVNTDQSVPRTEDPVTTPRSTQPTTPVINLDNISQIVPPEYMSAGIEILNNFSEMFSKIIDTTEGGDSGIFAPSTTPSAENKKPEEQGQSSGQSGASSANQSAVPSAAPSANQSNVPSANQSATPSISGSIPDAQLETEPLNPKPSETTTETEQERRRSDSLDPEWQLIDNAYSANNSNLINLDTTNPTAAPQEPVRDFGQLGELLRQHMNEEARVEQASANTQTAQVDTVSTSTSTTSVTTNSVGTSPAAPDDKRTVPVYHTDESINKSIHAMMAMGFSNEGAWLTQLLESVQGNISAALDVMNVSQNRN
Description: co-IP; two tagged proteins (3xHA and 3xFLAG) co-expressed in D.Mel-2 cells from UAS plasmids with mt-Gal4; anti-tag immunoprecipitation, western blot.

3xHA-Atg18 (Drosophila): the binding result was “binds”.
